PubChem BioAssay AID1159578, Peter MacCallum Cancer Centre, 2015

Assay: 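Genome-wide hunt for genes controlling movement of lymphatic endothelial cells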 (primary screen)
Cells: human lymphatic endothelial cells
Reagent: siRNA pool against human genes, 40 nM
Time to read-out: 48 h after transfection
Detection: 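High-content imaging of dye-stained cells in a scratch assay measures filled wound area and nuclei per well; duplicate means given as ratio to mock and robust z-score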
Direction: migration robust z-score: higher = faster migration into the scratch; migration relative to mock: higher = more scratch area covered than mock; nuclei per well: higher = more cells in the well
Active means: 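Migration changed when robust z exceeds 2 or falls below -2 and mean nuclei number is at least 3300; otherwise not called changed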
Calls: active = migration changed; inactive = no migration change, or too few cells
The whole screen tested about 18,000 reagents; shown is an unselected part. About 1,030 of all reagents (5.7%) count as active. 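Inactive calls also include pools with fewer than 3300 nuclei, whose migration was not assessed.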 The raw values are shown without normalisation. Entries without a mark were called inactive.

gene knocked down	PubChem SID	migration robust z-score	migration class with cell-count check	migration relative to mock	nuclei per well, duplicate mean
INTS4	SID255361980	-0.38	migration z between -2 and 2; enough cells	0.79	5504
GFRAL	SID255365561	-0.38	migration z between -2 and 2; enough cells	0.78	5937
LINC02875	SID255365489	0.32	migration z between -2 and 2; enough cells	0.97	5278
MAZ	SID255350887	0.65	migration z between -2 and 2; enough cells	0.93	5413
TIMM29	SID255361842	1.85	migration z between -2 and 2; enough cells	1.36	4898
THRB	SID255352862	-2.88	under 3300 nuclei; migration not judged	0.25	2667
LRP6	SID255350798	0	migration z between -2 and 2; enough cells	0.8	4984
ASB15	SID255363170	0.99	migration z between -2 and 2; enough cells	1	4776
DDX51	SID255364943	-0.02	migration z between -2 and 2; enough cells	0.8	6179
FAM20A	SID255358149	0.51	migration z between -2 and 2; enough cells	1.02	5018
PCDHGB1	SID255358996	-0.16	migration z between -2 and 2; enough cells	0.84	6136
WWC3	SID255358904	-0.56	under 3300 nuclei; migration not judged	0.74	3169
OR11H1	SID255360852	-0.49	migration z between -2 and 2; enough cells	0.76	5130
MYH11	SID255351106	-1.06	migration z between -2 and 2; enough cells	0.62	4419
IL12RB2	SID255350476	-0.62	migration z between -2 and 2; enough cells	0.68	6208
CDCA7	SID255361115	-0.68	migration z between -2 and 2; enough cells	0.71	5088
AP5S1	SID255358593	1.02	migration z between -2 and 2; enough cells	1.16	5467
GLB1L	SID255360283	0.46	migration z between -2 and 2; enough cells	1	6340
ATP2A1	SID255348450	-0.6	migration z between -2 and 2; enough cells	0.69	5479
STX1B	SID255362156	1.92	migration z between -2 and 2; enough cells	1.17	6186
NADK2	SID255362952	-1.4	migration z between -2 and 2; enough cells	0.52	6251
FSCN3	SID255357274	-0.25	migration z between -2 and 2; enough cells	0.82	5756
DISP1	SID255361623	-0.68	migration z between -2 and 2; enough cells	0.7	5352

Records above whose gene name starts with D or d (2):
gene knocked down	PubChem SID	migration robust z-score	migration class with cell-count check	migration relative to mock	nuclei per well, duplicate mean
DDX51	SID255364943	-0.02	migration z between -2 and 2; enough cells	0.8	6179
DISP1	SID255361623	-0.68	migration z between -2 and 2; enough cells	0.7	5352

Continued.
gene knocked down	PubChem SID	migration robust z-score	migration class with cell-count check	migration relative to mock	nuclei per well, duplicate mean
FLVCR2	SID255358742	-1.79	migration z between -2 and 2; enough cells	0.43	6132
RBL1	SID255352065	0.57	migration z between -2 and 2; enough cells	0.92	5048
UBQLN3	SID255357337	0.68	migration z between -2 and 2; enough cells	1.06	6072
ZNF99	SID255353227	0.09	migration z between -2 and 2; enough cells	0.91	5858
SH2D1A	SID255350822	-1.77	migration z between -2 and 2; enough cells	0.43	5239
OMP	SID255351349	2.79 (active)	migration z above 2; enough cells	1.61	4149
PGBD4	SID255363735	-0.22	migration z between -2 and 2; enough cells	0.83	6581
MBTPS1	SID255353762	0.21	migration z between -2 and 2; enough cells	0.84	5168
ZFP36L1	SID255348580	-0.68	migration z between -2 and 2; enough cells	0.68	5295
PANK4	SID255358521	-0.39	migration z between -2 and 2; enough cells	0.73	5086
PPP1R7	SID255351739	1.82	migration z between -2 and 2; enough cells	1.16	4814
YBX3	SID255353623	0.29	migration z between -2 and 2; enough cells	0.86	4179
TIMM17A	SID255355080	0.36	migration z between -2 and 2; enough cells	0.98	4933
RAD50	SID255354817	1.19	migration z between -2 and 2; enough cells	1.04	6792
AFF2	SID255349734	1.94	migration z between -2 and 2; enough cells	1.39	5733
STKLD1	SID255363883	-0.78	migration z between -2 and 2; enough cells	0.66	4773
GPATCH11	SID255364425	-2.01 (active)	migration z below -2; enough cells	0.36	6544
OR5J2	SID255364624	-1.76	migration z between -2 and 2; enough cells	0.43	4634
TMEM107	SID255361326	-1.03	migration z between -2 and 2; enough cells	0.62	5960
TSLIG1	SID255365042	-0.88	migration z between -2 and 2; enough cells	0.66	6068
PRR5-ARHGAP8	SID255366045	-0.78	migration z between -2 and 2; enough cells	0.69	4928
F13B	SID255349606	0.39	migration z between -2 and 2; enough cells	0.88	5492
KANK2	SID255356578	1.58	migration z between -2 and 2; enough cells	1.29	6384
DDX55	SID255359556	1.53	migration z between -2 and 2; enough cells	1.1	5602
OR2AK2	SID255365684	2.06 (active)	migration z above 2; enough cells	1.42	5936
ZBTB20	SID255356684	-0.58	migration z between -2 and 2; enough cells	0.74	4896
WDR33	SID255358613	-0.02	migration z between -2 and 2; enough cells	0.88	6214
ACP3	SID255348151	0.57	migration z between -2 and 2; enough cells	0.92	5706
STON1-GTF2A1L	SID255364927	1.48	migration z between -2 and 2; enough cells	1.27	5332
RAPGEF5	SID255354541	0.83	migration z between -2 and 2; enough cells	0.96	5373
IMPA1	SID255350490	-0.39	migration z between -2 and 2; enough cells	0.73	4894
H1-7	SID255365123	0.48	migration z between -2 and 2; enough cells	1.01	6703
BTG4	SID255358156	0.19	migration z between -2 and 2; enough cells	0.94	5642
AASDHPPT	SID255359722	-1.17	migration z between -2 and 2; enough cells	0.58	5363
